Article PMC6972935
Like-named read-outs stand apart in the source and are kept apart here. No constants are given. Whether binding was seen depends on the method and setting. Some results given as binding are weak or reduced against the parent protein; the word gives no strength.

The chains behind the UniProt entries cited, without tags or fusion partners.
UniProt P07149: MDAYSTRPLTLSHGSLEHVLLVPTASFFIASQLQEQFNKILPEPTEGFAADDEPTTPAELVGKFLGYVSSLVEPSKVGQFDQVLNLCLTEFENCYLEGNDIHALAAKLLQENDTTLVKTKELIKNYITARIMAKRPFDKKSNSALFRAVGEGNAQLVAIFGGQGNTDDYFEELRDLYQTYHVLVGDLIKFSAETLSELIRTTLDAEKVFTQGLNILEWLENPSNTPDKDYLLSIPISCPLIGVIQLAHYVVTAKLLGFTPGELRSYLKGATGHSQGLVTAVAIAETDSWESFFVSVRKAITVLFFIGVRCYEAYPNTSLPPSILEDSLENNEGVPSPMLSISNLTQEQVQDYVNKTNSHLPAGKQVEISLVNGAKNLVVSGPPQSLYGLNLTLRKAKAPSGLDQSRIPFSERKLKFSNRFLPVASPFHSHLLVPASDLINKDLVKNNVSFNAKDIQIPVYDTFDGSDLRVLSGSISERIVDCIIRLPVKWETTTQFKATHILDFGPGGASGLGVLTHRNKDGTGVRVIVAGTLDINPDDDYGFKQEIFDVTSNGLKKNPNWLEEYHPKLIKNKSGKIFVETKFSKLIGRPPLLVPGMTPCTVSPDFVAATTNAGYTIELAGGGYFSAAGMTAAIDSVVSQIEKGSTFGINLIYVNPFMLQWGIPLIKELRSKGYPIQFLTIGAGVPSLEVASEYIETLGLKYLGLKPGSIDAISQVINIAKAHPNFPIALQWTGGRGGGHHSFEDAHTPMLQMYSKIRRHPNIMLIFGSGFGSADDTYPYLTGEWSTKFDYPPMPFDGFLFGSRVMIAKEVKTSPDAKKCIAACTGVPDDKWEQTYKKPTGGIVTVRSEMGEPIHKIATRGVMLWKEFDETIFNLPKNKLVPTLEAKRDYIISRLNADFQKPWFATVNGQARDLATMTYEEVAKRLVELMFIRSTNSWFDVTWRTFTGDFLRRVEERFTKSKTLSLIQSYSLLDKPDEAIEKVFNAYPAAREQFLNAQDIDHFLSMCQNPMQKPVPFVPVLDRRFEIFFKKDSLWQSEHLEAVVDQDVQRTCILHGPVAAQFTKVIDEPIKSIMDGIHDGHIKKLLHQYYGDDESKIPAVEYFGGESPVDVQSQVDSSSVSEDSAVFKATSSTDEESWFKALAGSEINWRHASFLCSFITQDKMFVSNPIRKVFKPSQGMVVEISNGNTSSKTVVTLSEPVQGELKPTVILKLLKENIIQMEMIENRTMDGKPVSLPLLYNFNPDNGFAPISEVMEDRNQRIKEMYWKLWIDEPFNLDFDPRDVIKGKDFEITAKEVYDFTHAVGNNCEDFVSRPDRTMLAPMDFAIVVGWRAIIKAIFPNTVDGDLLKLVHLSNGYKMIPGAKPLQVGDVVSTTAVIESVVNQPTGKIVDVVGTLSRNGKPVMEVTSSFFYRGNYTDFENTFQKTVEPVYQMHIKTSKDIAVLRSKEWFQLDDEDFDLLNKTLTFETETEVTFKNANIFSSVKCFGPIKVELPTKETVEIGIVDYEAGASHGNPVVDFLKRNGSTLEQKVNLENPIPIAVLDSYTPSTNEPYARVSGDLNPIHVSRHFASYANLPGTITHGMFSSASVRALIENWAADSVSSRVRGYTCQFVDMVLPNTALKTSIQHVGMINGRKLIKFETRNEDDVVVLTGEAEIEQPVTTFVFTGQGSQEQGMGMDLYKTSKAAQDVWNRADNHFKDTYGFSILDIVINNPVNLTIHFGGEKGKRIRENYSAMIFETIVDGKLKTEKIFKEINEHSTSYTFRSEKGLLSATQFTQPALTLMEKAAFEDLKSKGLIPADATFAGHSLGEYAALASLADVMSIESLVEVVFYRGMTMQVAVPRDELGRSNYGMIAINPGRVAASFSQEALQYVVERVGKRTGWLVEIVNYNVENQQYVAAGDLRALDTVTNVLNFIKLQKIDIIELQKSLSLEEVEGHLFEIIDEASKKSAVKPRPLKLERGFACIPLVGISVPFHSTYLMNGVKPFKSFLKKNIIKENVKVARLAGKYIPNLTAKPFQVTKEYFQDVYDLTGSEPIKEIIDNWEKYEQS

Tests used:
[1] = biological target: yeast fatty acid synthase (FAS) β-subunit, wildtype (encoded by FAS1) (S. cerevisiae) (UniProt P07149); experiment: native gel or EMSA; Native-PAGE (3–12% Bis-Tris, Blue Native buffer system) of lysates of S. cerevisiae strains (for the deletion mutants also after purification), Western blot with rabbit anti-FAS antiserum; bands indicate intact FAS barrels
[2] = biological target: yeast fatty acid synthase (FAS) β-subunit, wildtype (encoded by FAS1) (S. cerevisiae) (UniProt P07149); experiment: as above; remark: listed apart in the source

Row | binding [1] | binding [2] | Molecule
1 | binds | – | yeast FAS α-subunit S180A (phosphopantetheinylation-deficient) (from UniProt P19097 1-1887)
2 | no binding | – | yeast FAS α-subunit K2S/E8R double mutant (from UniProt P19097 1-1887)
3 | binds | – | yeast fatty acid synthase (FAS) α-subunit, wildtype (encoded by FAS2) (from UniProt P19097 1-1887)
4 | no binding | – | yeast FAS α-subunit deleted in about half of the N-terminal α1-helix (amino acids K2 to H11) (from UniProt P19097 1-1887)
5 | – | binds | yeast FAS α-subunit N-terminal piece of the tripartite FAS, fas2∆(428–1887) (domain or fragment, UniProt P19097 1-427) MKPEVEQELAHILLTELLAYQFASPVRWIETQDVFLKDFNTERVVEIGPSPTLAGMAQRTLKNKYESYDAALSLHREILCYSKDAKEIYYTPDPSELAAKEEPAKEEAPAPTPAASAPAPAAAAPAPVAAAAPAAAAAEIADEPVKASLLLHVLVAHKLKKSLDSIPMSKTIKDLVGGKSTVQNEILGDLGKEFGTTPEKPEETPLEELAETFQDTFSGALGKQSSSLLSRLISSKMPGGFTITVARKYLQTRWGLPSGRQDGVLLVALSNEPAARLGSEADAKAFLDSMAQKYASIVGVDLSSAASASGAAGAGAAAGAAMIDAGALEEITKDHKVLARQQLQVLARYLKMDLDNGERKFLKEKDTVAELQAQLDYLNAELGEFFVNGVATSFSRKKARTFDSSWNWAKQSLLSLYFEIIHGVLKN
